# Laboratory results as given in the supplement of paper PMC8728848.
# The other results are listed elsewhere or left out.
# B1: Sp8391B-bot-388-20-388 (Bacteroides ovatus) (protein)
# chain: GCQNNDENEQHYDNKLFISASNFTKEILFKAGDTNVETGLSVAIAKPEEHDIKVTMSPAPELLSTYKLAYYDETAVLLSEEHYSMPETSTTIKSGSIVSPELPIEFINTGELDIKTTYVLPVTIKSVEGIGVLQSAKTYYYVFRGASLINVVCNISRNRAYPDFKNDSKFNNLTENTMEILFKANSFPNTLNTLMGIESNYLLRIGDATIPNNQLQVATSVNNCTSADLQLESGKWYHVAVAFNKGNVKVYINGVEKLSGSTGKSSVSLGAKHTNEEDGSRCFWVGYSYKDDRYFDGVVSEVRIWNRALTAEEIQATNHFYTIEPESEGLIAYWKFDEGSGTVAKDYSVSGYDLTIEKEPKWESVSLPQ
# How the values were obtained:
# Assay in all cases: glycan array binding signal (z-score within array); higher = stronger binding
# Settings in all cases: glycan notation: IUPAC condensed, linker removed
# [1] = molecular target: GlcNAc(b1-3)Gal(b1-4)Glc
# Summary of the method: (§1)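 Columns mapping to the same glycan were averaged after glycan names were converted to IUPAC-condensed notation. The data come from 3228 arrays in the Consortium for Functional Glycomics database, limited to those with an available protein sequence. Binding is reported as a within-array Z-score averaged across arrays of one protein sequence and across linkers.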
# [2] = molecular target: GlcNAc(b1-3)Gal(b1-4)GlcNAc
# Summary of the method: as §1
# [3] = molecular target: GlcNAc(b1-3)Gal(b1-4)GlcNAc(b1-2)Man(a1-3)[GlcNAc(b1-3)Gal(b1-4)GlcNAc(b1-2)Man(a1-6)]Man(b1-4)GlcNAc(b1-4)GlcNAc
# Summary of the method: as §1
# [4] = molecular target: GlcNAc(b1-3)Gal(b1-4)GlcNAc(b1-2)Man(a1-3)[GlcNAc(b1-3)Gal(b1-4)GlcNAc(b1-2)Man(a1-6)]Man(b1-4)GlcNAc(b1-4)[Fuc(a1-6)]GlcNAc
# Summary of the method: as §1
# [5] = molecular target: GlcNAc(b1-3)Gal(b1-4)GlcNAc(b1-2)[GlcNAc(b1-3)Gal(b1-4)GlcNAc(b1-6)]Man(a1-6)[GlcNAc(b1-3)Gal(b1-4)GlcNAc(b1-2)Man(a1-3)]Man(b1-4)GlcNAc(b1-4)GlcNAc
# Summary of the method: as §1
# [6] = molecular target: GlcNAc(b1-3)Gal(b1-4)GlcNAc(b1-3)Gal(b1-4)GlcNAc
# Summary of the method: as §1
# [7] = molecular target: GlcNAc(b1-3)Gal(b1-4)GlcNAc(b1-3)Gal(b1-4)GlcNAc(b1-2)Man(a1-3)[GlcNAc(b1-3)Gal(b1-4)GlcNAc(b1-3)Gal(b1-4)GlcNAc(b1-2)Man(a1-6)]Man(b1-4)GlcNAc(b1-4)GlcNAc
# Summary of the method: as §1
# [8] = molecular target: GlcNAc(b1-3)Gal(b1-4)GlcNAc(b1-3)Gal(b1-4)GlcNAc(b1-2)Man(a1-3)[GlcNAc(b1-3)Gal(b1-4)GlcNAc(b1-3)Gal(b1-4)GlcNAc(b1-2)Man(a1-6)]Man(b1-4)GlcNAc(b1-4)[Fuc(a1-6)]GlcNAc
# Summary of the method: as §1
# [9] = molecular target: GlcNAc(b1-3)Gal(b1-4)GlcNAc(b1-3)Gal(b1-4)GlcNAc(b1-2)[GlcNAc(b1-3)Gal(b1-4)GlcNAc(b1-3)Gal(b1-4)GlcNAc(b1-6)]Man(a1-6)[GlcNAc(b1-3)Gal(b1-4)GlcNAc(b1-3)Gal(b1-4)GlcNAc(b1-2)Man(a1-3)]Man(b1-4)GlcNAc(b1-4)[Fuc(a1-6)]GlcNAc
# Summary of the method: as §1
# [10] = molecular target: GlcNAc(b1-3)Gal(b1-4)GlcNAc(b1-3)Gal(b1-4)GlcNAc(b1-3)Gal(b1-4)GlcNAc(b1-2)Man(a1-3)[GlcNAc(b1-3)Gal(b1-4)GlcNAc(b1-3)Gal(b1-4)GlcNAc(b1-3)Gal(b1-4)GlcNAc(b1-2)Man(a1-6)]Man(b1-4)GlcNAc(b1-4)GlcNAc
# Summary of the method: as §1
# [11] = molecular target: GlcNAc(b1-3)Gal(b1-4)GlcNAc(b1-3)Gal(b1-4)GlcNAc(b1-3)Gal(b1-4)GlcNAc(b1-2)Man(a1-3)[GlcNAc(b1-3)Gal(b1-4)GlcNAc(b1-3)Gal(b1-4)GlcNAc(b1-3)Gal(b1-4)GlcNAc(b1-2)Man(a1-6)]Man(b1-4)GlcNAc(b1-4)[Fuc(a1-6)]GlcNAc
# Summary of the method: as §1
# [12] = molecular target: GlcNAc(b1-3)Gal(b1-4)GlcNAc(b1-3)Gal(b1-4)GlcNAc(b1-3)Gal(b1-4)GlcNAc(b1-2)[GlcNAc(b1-3)Gal(b1-4)GlcNAc(b1-3)Gal(b1-4)GlcNAc(b1-3)Gal(b1-4)GlcNAc(b1-6)]Man(a1-6)[GlcNAc(b1-3)Gal(b1-4)GlcNAc(b1-3)Gal(b1-4)GlcNAc(b1-3)Gal(b1-4)GlcNAc(b1-2)Man(a1-3)]Man(b1-4)GlcNAc(b1-4)[Fuc(a1-6)]GlcNAc
# Summary of the method: as §1
# [13] = molecular target: GlcNAc(b1-3)Gal(b1-4)GlcNAc(b1-3)Gal(b1-4)GlcNAc(b1-3)Gal(b1-4)GlcNAc(b1-3)Gal(b1-4)GlcNAc(b1-2)Man(a1-3)[GlcNAc(b1-3)Gal(b1-4)GlcNAc(b1-3)Gal(b1-4)GlcNAc(b1-3)Gal(b1-4)GlcNAc(b1-3)Gal(b1-4)GlcNAc(b1-2)Man(a1-6)]Man(b1-4)GlcNAc(b1-4)GlcNAc
# Summary of the method: as §1
# [14] = molecular target: GlcNAc(b1-3)Gal(b1-4)GlcNAc(b1-3)Gal(b1-4)GlcNAc(b1-3)Gal(b1-4)GlcNAc(b1-3)Gal(b1-4)GlcNAc(b1-2)Man(a1-3)[GlcNAc(b1-3)Gal(b1-4)GlcNAc(b1-3)Gal(b1-4)GlcNAc(b1-3)Gal(b1-4)GlcNAc(b1-3)Gal(b1-4)GlcNAc(b1-2)Man(a1-6)]Man(b1-4)GlcNAc(b1-4)[Fuc(a1-6)]GlcNAc
# Summary of the method: as §1
# [15] = molecular target: GlcNAc(b1-3)Gal(b1-4)GlcNAc(b1-3)Gal(b1-4)GlcNAc(b1-3)Gal(b1-4)GlcNAc(b1-3)Gal(b1-4)GlcNAc(b1-2)[GlcNAc(b1-3)Gal(b1-4)GlcNAc(b1-3)Gal(b1-4)GlcNAc(b1-3)Gal(b1-4)GlcNAc(b1-3)Gal(b1-4)GlcNAc(b1-6)]Man(a1-6)[GlcNAc(b1-3)Gal(b1-4)GlcNAc(b1-3)Gal(b1-4)GlcNAc(b1-3)Gal(b1-4)GlcNAc(b1-3)Gal(b1-4)GlcNAc(b1-2)Man(a1-3)]Man(b1-4)GlcNAc(b1-4)[Fuc(a1-6)]GlcNAc
# Summary of the method: as §1
# [16] = molecular target: GlcNAc(b1-3)Gal(b1-4)GlcNAc(b1-3)Gal(b1-4)GlcNAc(b1-3)GalNAc
# Summary of the method: as §1
# [17] = molecular target: GlcNAc(b1-3)Gal(b1-4)GlcNAc(b1-3)GalNAc
# Summary of the method: as §1
# [18] = molecular target: GlcNAc(b1-3)Gal(b1-4)GlcNAc(b1-3)[GlcNAc(b1-3)Gal(b1-4)GlcNAc(b1-3)]GalNAc
# Summary of the method: as §1
# [19] = molecular target: GlcNAc(b1-3)Gal(b1-4)GlcNAc(b1-6)[Gal(b1-3)]GalNAc
# Summary of the method: as §1
# [20] = molecular target: GlcNAc(b1-3)Gal(b1-4)GlcNAc(b1-6)[GlcNAc(b1-3)Gal(b1-3)]GalNAc
# Summary of the method: as §1
# [21] = molecular target: GlcNAc(b1-3)Gal(b1-4)GlcNAc(b1-6)[GlcNAc(b1-3)]Gal(b1-4)GlcNAc
# Summary of the method: as §1
# [22] = molecular target: GlcNAc(b1-3)GalNAc
# Summary of the method: as §1
# [23] = molecular target: GlcNAc(b1-3)Man
# Summary of the method: as §1
# [24] = molecular target: GlcNAc(b1-3)[GlcNAc(b1-4)][GlcNAc(b1-6)]GlcNAc
# Summary of the method: as §1
# [25] = molecular target: GlcNAc(b1-3)[GlcNAc(b1-6)]Gal(b1-4)GlcNAc
# Summary of the method: as §1
# [26] = molecular target: GlcNAc(b1-3)[GlcNAc(b1-6)]GalNAc
# Summary of the method: as §1
# [27] = molecular target: GlcNAc(b1-4)Gal(b1-4)GlcNAc
# Summary of the method: as §1
# [28] = molecular target: GlcNAc(b1-4)GlcNAc
# Summary of the method: as §1
# [29] = molecular target: GlcNAc(b1-4)GlcNAc(b1-4)GlcNAc
# Summary of the method: as §1
# [30] = molecular target: GlcNAc(b1-4)GlcNAc(b1-4)GlcNAc(b1-4)GlcNAc(b1-4)GlcNAc
# Summary of the method: as §1
# [31] = molecular target: GlcNAc(b1-4)GlcNAc(b1-4)GlcNAc(b1-4)GlcNAc(b1-4)GlcNAc(b1-4)GlcNAc
# Summary of the method: as §1
# [32] = molecular target: GlcNAc(b1-4)[GlcNAc(b1-6)]GalNAc
# Summary of the method: as §1
# [33] = molecular target: GlcNAc(b1-6)Gal(b1-4)GlcNAc
# Summary of the method: as §1
# [34] = molecular target: GlcNAc(b1-6)GalNAc
# Summary of the method: as §1
# [35] = molecular target: GlcNAc6S(b1-3)Gal(b1-4)GlcNAc
# Summary of the method: as §1
# [36] = molecular target: Kdn(a2-3)Gal(b1-3)GalNAc
# Summary of the method: as §1
# [37] = molecular target: Kdn(a2-3)Gal(b1-3)GlcNAc
# Summary of the method: as §1
binder,measurement,setting,value
B1,glycan array binding signal (z-score),[1],-0.949
same,glycan array binding signal (z-score),[2],-0.27
same,glycan array binding signal (z-score),[3],0.607
same,glycan array binding signal (z-score),[4],-0.621
same,glycan array binding signal (z-score),[5],0.617
same,glycan array binding signal (z-score),[6],-0.184
same,glycan array binding signal (z-score),[7],0.656
same,glycan array binding signal (z-score),[8],0.781
same,glycan array binding signal (z-score),[9],-0.347
same,glycan array binding signal (z-score),[10],-0.679
same,glycan array binding signal (z-score),[11],2.65
same,glycan array binding signal (z-score),[12],0.958
same,glycan array binding signal (z-score),[13],-0.236
same,glycan array binding signal (z-score),[14],0.345
same,glycan array binding signal (z-score),[15],0.482
same,glycan array binding signal (z-score),[16],-0.298
same,glycan array binding signal (z-score),[17],0.039
same,glycan array binding signal (z-score),[18],-0.103
same,glycan array binding signal (z-score),[19],-0.391
same,glycan array binding signal (z-score),[20],1.69
same,glycan array binding signal (z-score),[21],0.152
same,glycan array binding signal (z-score),[22],-0.328
same,glycan array binding signal (z-score),[23],0.083
same,glycan array binding signal (z-score),[24],-0.908
same,glycan array binding signal (z-score),[25],-1.1
same,glycan array binding signal (z-score),[26],-0.04
same,glycan array binding signal (z-score),[27],-0.752
same,glycan array binding signal (z-score),[28],0.278
same,glycan array binding signal (z-score),[29],-0.077
same,glycan array binding signal (z-score),[30],-0.574
same,glycan array binding signal (z-score),[31],-0.594
same,glycan array binding signal (z-score),[32],-0.549
same,glycan array binding signal (z-score),[33],0.387
same,glycan array binding signal (z-score),[34],0.361
same,glycan array binding signal (z-score),[35],-0.463
same,glycan array binding signal (z-score),[36],0.008
same,glycan array binding signal (z-score),[37],-0.992

# Looked up one by one from above, 2 records:
binder,measurement,setting,value
B1,glycan array binding signal (z-score),[21],0.152
same,glycan array binding signal (z-score),[36],0.008
